Data on two molecules can be found in article PMC6834283, “Duplicate divergence of two bacterial small heat shock proteins reduces the demand for Hsp70 in refolding of substrates” (PLoS Genetics, 2019).

Sequences of proteins named here, by UniProt entry; tags and fusion partners are left off.
UniProt A0A089Q2Q3: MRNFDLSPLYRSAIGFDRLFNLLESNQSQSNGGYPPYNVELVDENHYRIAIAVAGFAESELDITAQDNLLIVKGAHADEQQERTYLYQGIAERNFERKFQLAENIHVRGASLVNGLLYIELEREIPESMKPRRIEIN

Read-outs that look alike come from different tables or passages of the source. Results are given in words; binding and its absence hold for the method and conditions named. Some binding calls cover weakened binding; strength is not graded here.

In assay [1] the target is firefly luciferase, thermally denatured (firefly) [luciferase: P08659]. Put plainly: co-sedimentation; both purified.
The target is the same in assay [2]. Nature of the assay: co-sedimentation; both purified. The source holds these as a separate data set.
The target of assay [3] is C-His-tagged luciferase, aggregated on the BLI sensor (firefly) [luciferase: P08659]. Put plainly: BLI; aggregated C-His-tagged luciferase immobilised on Ni-NTA sensors (BLItz); 5 μM sHsps (1.66 μM IbpAEc with 3.34 μM IbpBEc for IbpABEc) heat-activated at 44°C for 5 min; room temperature, buffer D (50 mM Tris-HCl pH 7.5, 150 mM KCl, 20 mM Mg acetate, 2 mM DTT); 10 min binding, 1 h dissociation in buffer; both purified. (Biolayer interferometry detects binding as a change in optical thickness at a sensor tip.)

Turning to “IbpA from Cedecea neteri (from UniProt A0A089Q2Q3 1-137)”, the binding result in assay [1] is given as “binds”.

B1: IbpA from Erwinia amylovora (protein, UniProt A0ABX7MII2 1-139)
chain: MRNFDLAPLYRSSIGFDRLINLLETSQNQGNNGGYPPYNVELVAENHYRITIAVAGFAESELEITSHDNLLSVRGSHPDEQQERTWLYQGIAERNFERKFQLAEHVHVRDARLENGLLYIDLERVVPEANQPRRIEIVK
For the molecule B1, the binding result in assay [2] and in assay [3] was “binds” in each case.
